In patent US20060270837A1 (published 2006):
Numbering of substitutions follows the chain as printed. Results are given in words; binding and its absence hold for the method and conditions named. Some entries that bind do so weakly or less than the wild type. One block for each binder: values may come before it.

Protein sequences, listed by entry. Tags and fused reporters are not part of them. Lines headed by an entry give the natural chain unless they say otherwise; changes in a name come on top.
UniProt O00220: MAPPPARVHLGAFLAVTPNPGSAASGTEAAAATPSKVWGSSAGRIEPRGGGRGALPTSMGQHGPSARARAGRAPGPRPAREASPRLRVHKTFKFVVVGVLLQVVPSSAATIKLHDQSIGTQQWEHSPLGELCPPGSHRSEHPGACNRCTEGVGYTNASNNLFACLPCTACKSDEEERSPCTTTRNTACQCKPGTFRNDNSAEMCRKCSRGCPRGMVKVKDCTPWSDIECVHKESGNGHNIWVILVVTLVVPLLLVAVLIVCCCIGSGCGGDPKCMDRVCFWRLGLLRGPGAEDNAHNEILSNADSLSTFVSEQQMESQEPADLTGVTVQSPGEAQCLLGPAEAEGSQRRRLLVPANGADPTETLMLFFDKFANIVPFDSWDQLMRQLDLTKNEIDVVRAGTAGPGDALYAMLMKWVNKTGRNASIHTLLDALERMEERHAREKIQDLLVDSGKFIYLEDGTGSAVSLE

Columns and labels:
[1] = biological target: TR4 polypeptide (human) (UniProt O00220); assay: phage display selection of scFvs on TR4
[2] = biological target: TR4 polypeptide (human) (UniProt O00220); assay: statement in Example 8; assay not named

- binding [1]: binds
B1: scFv T1014F08 (scFv)
scFv: EVQLVQSGAEVKKPGASVKLSCRVSGDTFTAYFIHWVRQAPGQGPEWMGWFNPISGTAGSAARFRGRVAMTRDTSISTAYMELNRLTFDDTAVYYCARQHRGNTFDPWGKGTLVTVSSGGGGSGGGGSGGGGSALPVLTQPPSASGSPGQSVTISCTGTSSDVGGYKYVSWYQQHPGKAPKLMIYEVSMRPSGVPDRFSGSKSGNTASLTVSGLQAEDEADYYCASYAGSNNWVFGGGTKLTVLG

- binding [1]: binds
B2: scFv T1014A04 (scFv)
scFv: EVQLVQSGADVKRPGASVKVSCKISGDSFNAYFIHWVRQAPGQGLEWMGWFNPDSGTADSAQKFHGRVTMTRDTSSSTAFLELSRLRSDDTAVYYCVRQHRGNTFAPWGRGTMVTVSSGGGGSGGGGSGGGGSAQSVLTQPPSASGSPGQSVTISCTGTTSDVGGYNYVSWYQQHPGKAPKLMIYGVNQRPSGVPDRFSGSKSGNTASLTVSGLQAEDEADYYCSSYAGSNNWVFGGGTKLTVLG

- binding [1]: binds
B3: scFv T1014G04 (scFv)
scFv: EVQLVQSGADVKRPGASVKVSCKISGDSFTAYFIHWVRQAPGQGLEWMGWFNPDSGTADSAQKFHGRVTMTRDTSSSTAFLELSRLRSDDTAVYYCVRQHRGNTFAPWGRGTLVTVSSGGGGSGGGGSGGGGSAQPVLTQPPSASGSPGQSVTISCTGTSSDVGSYEYVSWYQQHPGKAPRLMISEVNKRPSGVPNRFSGSKSGNTASLTVSGLQADDEADYYCSSYAGSNNWVFGGGTKVTVLG

- binding [1]: binds
B4: scFv T1014B01 (scFv)
scFv: QVQLVQSGAEVKKPGASVKVSCKISGDTFAAYFIHWVRQAPGQGLEWMGWFNPNSGTADSSQKFHGRVTMTRDTSISTAYMELSRLRSDDTAVYYCARQHRSNTFDPWGQGTMVTVSSGGGGSGGGGSGGGGSAQSVVTQPPSVSGSPGQSVTISCTGTSSDIGAYNYVSWFQQHPGKAPKLIISEVSKRPSGVPDRLSGSKSGNTASLTVSGLQAEDEADYYCGSYAGSNIWVFGGGTKVTVLG

- binding [2]: binds
B5: IgG1 antibody comprising the VH and VL domains of the T1014F08 scFv (antibody, V domains shown)
VH: EVQLVQSGAEVKKPGASVKLSCRVSGDTFTAYFIHWVRQAPGQGPEWMGWFNPISGTAGSAARFRGRVAMTRDTSISTAYMELNRLTFDDTAVYYCARQHRGNTFDPWGKGTLVTVSS
VL: LPVLTQPPSASGSPGQSVTISCTGTSSDVGGYKYVSWYQQHPGKAPKLMIYEVSMRPSGVPDRFSGSKSGNTASLTVSGLQAEDEADYYCASYAGSNNWVFGGGTKLTVLG

- binding [1]: binds
B6: scFv T1015A07 (scFv)
scFv: EVQLVQSGAEVKKPGASVKVSCKISGDSFTAYFIHWLRQAPGEGLEWMGWFNPISGTADSPQKFHGRVAMTRDTSISTAYMELTRLASDDTAIYYCARQHHSNTFDPWGQGTLVTVSSGGGGSGGGGSGGGGSAQSALTQPASMSGSPGQSITISCTGTSSDVGGYNYVSWYQQHPGKAPKLMIYAVTNRPSGVSNRFSASKSGNTASLTISGLQAEDEADYYCSSYTSSNTWVFGGGTKVTVLG

- binding [1]: binds
B7: scFv T1014B11 (scFv)
scFv: B6 scFv with D59G, M144V, S160N, A186E, T188N, A200G, E217D, S229T, V241L

- binding [1]: binds
B8: scFv T1014A12 (scFv)
scFv: EVQLVQSGADVKRPGASVKVSCKISGDSFTAYFIHWVRQAPGQGLEWMGWFNPDSGTADSAQKFHGRVTMTRDTSSSTAFLELSRLRSDDTAVYYCVRQHRGNTFAPWGRGTMVTVSSGGGGSGGGGSGGGGSAQSALTQPASVSGPPGQSITISCTGSSSDVGGYKYVSWYQQHPGKAPKLIIHDVSRRPSEVSSRFSGSKSGNTASLTISGLQAEDEAEYYCSSYSSTNSWVFGGGTKVTVLG

- binding [1]: binds
B9: scFv T1014G03 (scFv)
scFv: EVQLVQSGAEVKMPGASVKLSCRVSGDTFTAYFIHWVRQAPGQGLEWMGWFNPISGTAGSAEKFRGRVAMTRDTSISTAYMELNRLTFDDTAVYYCARQHRGNTFDPWGQGTLVTVSSGGGGSGGGGSGGGGSAQSALTQPASVSGSPGQSITISCTGTSSDIGAYKYVSWYQQHPGKAPKLVIYEVSNRPSGVSSRFSGSKSGQTASLTISGLQADDEADYYCNSYQGYNTWVFGGGTKVTVLG

- binding [1]: binds
B10: scFv T1014A02 (scFv)
scFv: QVQLQESGPGLVKPSETLSLTCTVSGGSISDYYWSWVRQSPGKGLEWIGSIDYAGSTNYNPSLKSRVTMTIDKSKKQFPLKIDSVTAADTAMYYCARQLGRISDYWGQGTLVTVSSGGGGSGGGGSGGGGSALSYVLTQPPSASGTPGQRVTISCAGSSSNIGGNTVNWYQQLPATAPKLLIYSNNQRPSGVPDRFSGSKSGTSASLAISGLQSEDEADYYCATWDDSRGGWVFGGGTKLTVLG
